The other results are listed elsewhere or left out.
How the values were obtained:
Experiment in all cases: glycan array binding signal (z-score within array); higher = stronger binding
Settings in all cases: glycan notation: IUPAC condensed, linker removed
[1] = target: Neu5Ac(a2-3)Gal(b1-4)GlcNAc(b1-3)[Neu5Ac(a2-3)Gal(b1-4)GlcNAc(b1-6)]GalNAc
In short: (§1)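 The binding signal is a Z-score computed within each array. Data were drawn from 3228 arrays in the Consortium for Functional Glycomics database, restricted to those with a known protein sequence. Scores were averaged over arrays of the same protein sequence at different concentrations or buffers, and over linkers, and negative values can be taken as non-binding.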

[2] = target: Neu5Ac(a2-3)Gal(b1-4)GlcNAc(b1-6)GalNAc
In short: as §1

[3] = target: Neu5Ac(a2-3)Gal(b1-4)GlcNAc(b1-6)[Gal(b1-3)]GalNAc
In short: as §1

[4] = target: Neu5Ac(a2-3)Gal(b1-4)GlcNAc(b1-6)[Neu5Ac(a2-3)Gal(b1-3)]GalNAc
In short: as §1

[5] = target: Neu5Ac(a2-3)Gal(b1-4)GlcNAc6S
In short: as §1

[6] = target: Neu5Ac(a2-3)Gal(b1-4)[Fuc(a1-3)]GlcNAc
In short: as §1

[7] = target: Neu5Ac(a2-3)Gal(b1-4)[Fuc(a1-3)]GlcNAc(b1-2)Man
In short: as §1

[8] = target: Neu5Ac(a2-3)Gal(b1-4)[Fuc(a1-3)]GlcNAc(b1-3)Gal
In short: as §1

[9] = target: Neu5Ac(a2-3)Gal(b1-4)[Fuc(a1-3)]GlcNAc(b1-3)Gal(b1-4)GlcNAc
In short: as §1

[10] = target: Neu5Ac(a2-3)Gal(b1-4)[Fuc(a1-3)]GlcNAc(b1-3)Gal(b1-4)[Fuc(a1-3)]GlcNAc(b1-3)Gal(b1-4)[Fuc(a1-3)]GlcNAc
In short: as §1

[11] = target: Neu5Ac(a2-3)Gal(b1-4)[Fuc(a1-3)]GlcNAc(b1-3)GalNAc
In short: as §1

[12] = target: Neu5Ac(a2-3)Gal(b1-4)[Fuc(a1-3)]GlcNAc(b1-6)[Gal(b1-3)]GalNAc
In short: as §1

[13] = target: Neu5Ac(a2-3)Gal(b1-4)[Fuc(a1-3)]GlcNAc(b1-6)[Neu5Ac(a2-3)Gal(b1-3)]GalNAc
In short: as §1

[14] = target: Neu5Ac(a2-3)Gal(b1-4)[Fuc(a1-3)]GlcNAc6S
In short: as §1

[15] = target: Neu5Ac(a2-3)Gal6S(b1-4)GlcNAc
In short: as §1

[16] = target: Neu5Ac(a2-3)Gal6S(b1-4)[Fuc(a1-3)]GlcNAc
In short: as §1

Neu5Ac(a2-3)GalNAc = target: Neu5Ac(a2-3)GalNAc
In short: as §1

[17] = target: Neu5Ac(a2-3)GalNAc(b1-4)GlcNAc
In short: as §1

[18] = target: Neu5Ac(a2-3)[GalNAc(b1-4)]Gal(b1-4)Glc
In short: as §1

[19] = target: Neu5Ac(a2-3)[GalNAc(b1-4)]Gal(b1-4)GlcNAc
In short: as §1

[20] = target: Neu5Ac(a2-3)[GalNAc(b1-4)]Gal(b1-4)GlcNAc(b1-3)GalNAc
In short: as §1

[21] = target: Neu5Ac(a2-3)[Neu5Ac(a2-6)]GalNAc
In short: as §1

Neu5Ac(a2-6)Gal = target: Neu5Ac(a2-6)Gal
In short: as §1

[22] = target: Neu5Ac(a2-6)Gal(b1-3)GlcNAc(b1-3)[Gal(b1-4)GlcNAc(b1-6)]Gal(b1-4)Glc
In short: as §1

Neu5Ac(a2-6)Gal(b1-4)Glc = target: Neu5Ac(a2-6)Gal(b1-4)Glc
In short: as §1

[23] = target: Neu5Ac(a2-6)Gal(b1-4)GlcNAc
In short: as §1

[24] = target: Neu5Ac(a2-6)Gal(b1-4)GlcNAc(b1-2)Man
In short: as §1

[25] = target: Neu5Ac(a2-6)Gal(b1-4)GlcNAc(b1-2)Man(a1-3)Man(b1-4)GlcNAc(b1-4)GlcNAc
In short: as §1

[26] = target: Neu5Ac(a2-6)Gal(b1-4)GlcNAc(b1-2)Man(a1-3)[Gal(b1-4)GlcNAc(b1-2)Man(a1-6)]Man(b1-4)GlcNAc(b1-4)GlcNAc
In short: as §1

[27] = target: Neu5Ac(a2-6)Gal(b1-4)GlcNAc(b1-2)Man(a1-3)[GlcNAc(b1-2)Man(a1-6)]Man(b1-4)GlcNAc(b1-4)GlcNAc
In short: as §1

[28] = target: Neu5Ac(a2-6)Gal(b1-4)GlcNAc(b1-2)Man(a1-3)[GlcNAc(b1-4)][Neu5Ac(a2-6)Gal(b1-4)GlcNAc(b1-2)Man(a1-6)]Man(b1-4)GlcNAc(b1-4)GlcNAc
In short: as §1

[29] = target: Neu5Ac(a2-6)Gal(b1-4)GlcNAc(b1-2)Man(a1-3)[Man(a1-6)]Man(b1-4)GlcNAc(b1-4)GlcNAc
In short: as §1

[30] = target: Neu5Ac(a2-6)Gal(b1-4)GlcNAc(b1-2)Man(a1-3)[Neu5Ac(a2-3)Gal(b1-4)GlcNAc(b1-2)Man(a1-6)]Man(b1-4)GlcNAc(b1-4)GlcNAc
In short: as §1

[31] = target: Neu5Ac(a2-6)Gal(b1-4)GlcNAc(b1-2)Man(a1-3)[Neu5Ac(a2-6)Gal(b1-4)GlcNAc(b1-2)Man(a1-6)]Man(b1-4)GlcNAc(b1-4)GlcNAc
In short: as §1

[32] = target: Neu5Ac(a2-6)Gal(b1-4)GlcNAc(b1-2)Man(a1-3)[Neu5Ac(a2-6)Gal(b1-4)GlcNAc(b1-2)Man(a1-6)]Man(b1-4)GlcNAc(b1-4)[Fuc(a1-6)]GlcNAc
In short: as §1

[33] = target: Neu5Ac(a2-6)Gal(b1-4)GlcNAc(b1-2)Man(a1-6)Man(b1-4)GlcNAc(b1-4)GlcNAc
In short: as §1

[34] = target: Neu5Ac(a2-6)Gal(b1-4)GlcNAc(b1-2)Man(a1-6)[Gal(b1-4)GlcNAc(b1-2)Man(a1-3)]Man(b1-4)GlcNAc(b1-4)GlcNAc
In short: as §1

[35] = target: Neu5Ac(a2-6)Gal(b1-4)GlcNAc(b1-2)Man(a1-6)[GlcNAc(b1-2)Man(a1-3)]Man(b1-4)GlcNAc(b1-4)GlcNAc
In short: as §1

[36] = target: Neu5Ac(a2-6)Gal(b1-4)GlcNAc(b1-2)Man(a1-6)[Man(a1-3)]Man(b1-4)GlcNAc(b1-4)GlcNAc
In short: as §1

[37] = target: Neu5Ac(a2-6)Gal(b1-4)GlcNAc(b1-2)[Neu5Ac(a2-6)Gal(b1-4)GlcNAc(b1-4)]Man(a1-3)[GlcNAc(b1-4)][Neu5Ac(a2-6)Gal(b1-4)GlcNAc(b1-2)[Neu5Ac(a2-6)Gal(b1-4)GlcNAc(b1-6)]Man(a1-6)]Man(b1-4)GlcNAc(b1-4)GlcNAc
In short: as §1

[38] = target: Neu5Ac(a2-6)Gal(b1-4)GlcNAc(b1-2)[Neu5Ac(a2-6)Gal(b1-4)GlcNAc(b1-4)]Man(a1-3)[GlcNAc(b1-4)][Neu5Ac(a2-6)Gal(b1-4)GlcNAc(b1-4)Man(a1-6)]Man(b1-4)GlcNAc(b1-4)GlcNAc
In short: as §1

[39] = target: Neu5Ac(a2-6)Gal(b1-4)GlcNAc(b1-2)[Neu5Ac(a2-6)Gal(b1-4)GlcNAc(b1-6)]Man(a1-6)[Neu5Ac(a2-6)Gal(b1-4)GlcNAc(b1-2)Man(a1-3)][GlcNAc(b1-4)]Man(b1-4)GlcNAc(b1-4)GlcNAc
In short: as §1

[40] = target: Neu5Ac(a2-6)Gal(b1-4)GlcNAc(b1-3)Gal(b1-3)GlcNAc
In short: as §1

[41] = target: Neu5Ac(a2-6)Gal(b1-4)GlcNAc(b1-3)Gal(b1-4)GlcNAc
In short: as §1

[42] = target: Neu5Ac(a2-6)Gal(b1-4)GlcNAc(b1-3)Gal(b1-4)GlcNAc(b1-2)Man(a1-3)[Neu5Ac(a2-6)Gal(b1-4)GlcNAc(b1-3)Gal(b1-4)GlcNAc(b1-2)Man(a1-6)]GalNAc
In short: as §1

[43] = target: Neu5Ac(a2-6)Gal(b1-4)GlcNAc(b1-3)Gal(b1-4)GlcNAc(b1-3)Gal(b1-4)GlcNAc
In short: as §1

B1: DC-Sign-R (Homo sapiens), Q9H2X3 (protein)
chain: MSDSKEPRVQQLGLLEEDPTTSGIRLFPRDFQFQQIHGHKSSTGCLGHGALVLQLLSFMLLAGVLVAILVQVSKVPSSLSQEQSEQDAIYQNLTQLKAAVGELSEKSKLQEIYQELTQLKAAVGELPEKSKLQEIYQELTRLKAAVGELPEKSKLQEIYQELTRLKAAVGELPEKSKLQEIYQELTRLKAAVGELPEKSKLQEIYQELTELKAAVGELPEKSKLQEIYQELTQLKAAVGELPDQSKQQQIYQELTDLKTAFERLCRHCPKDWTFFQGNCYFMSNSQRNWHDSVTACQEVRAQLVVIKTAEEQNFLQLQTSRSNRFSWMGLSDLNQEGTWQWVDGSPLSPSFQRYWNSGEPNNSGNEDCAEFSGSGWNDNRCDVDNYWICKKPAACFRDE
- glycan array binding signal (z-score) [1]: 0.332
- glycan array binding signal (z-score) [2]: -0.293
- glycan array binding signal (z-score) [3]: -0.73
- glycan array binding signal (z-score) [4]: 0.509
- glycan array binding signal (z-score) [5]: -0.795
- glycan array binding signal (z-score) [6]: -0.357
- glycan array binding signal (z-score) [7]: 0.991
- glycan array binding signal (z-score) [8]: 1.15
- glycan array binding signal (z-score) [9]: -0.749
- glycan array binding signal (z-score) [10]: -0.219
- glycan array binding signal (z-score) [11]: 1.33
- glycan array binding signal (z-score) [12]: -0.608
- glycan array binding signal (z-score) [13]: 0.361
- glycan array binding signal (z-score) [14]: -0.531
- glycan array binding signal (z-score) [15]: -0.255
- glycan array binding signal (z-score) [16]: -0.433
- glycan array binding signal (z-score) (Neu5Ac(a2-3)GalNAc): -0.639
- glycan array binding signal (z-score) [17]: 0.032
- glycan array binding signal (z-score) [18]: 0.865
- glycan array binding signal (z-score) [19]: 0.02
- glycan array binding signal (z-score) [20]: 0.434
- glycan array binding signal (z-score) [21]: 0.964
- glycan array binding signal (z-score) (Neu5Ac(a2-6)Gal): -0.222
- glycan array binding signal (z-score) [22]: -0.84
- glycan array binding signal (z-score) (Neu5Ac(a2-6)Gal(b1-4)Glc): -0.112
- glycan array binding signal (z-score) [23]: 0.316
- glycan array binding signal (z-score) [24]: -0.243
- glycan array binding signal (z-score) [25]: -0.7
- glycan array binding signal (z-score) [26]: 0.079
- glycan array binding signal (z-score) [27]: -0.808
- glycan array binding signal (z-score) [28]: 0.035
- glycan array binding signal (z-score) [29]: -0.407
- glycan array binding signal (z-score) [30]: 0.166
- glycan array binding signal (z-score) [31]: -0.099
- glycan array binding signal (z-score) [32]: -0.156
- glycan array binding signal (z-score) [33]: -0.883
- glycan array binding signal (z-score) [34]: -0.77
- glycan array binding signal (z-score) [35]: -0.522
- glycan array binding signal (z-score) [36]: -0.78
- glycan array binding signal (z-score) [37]: 3.11
- glycan array binding signal (z-score) [38]: 2.25
- glycan array binding signal (z-score) [39]: -0.177
- glycan array binding signal (z-score) [40]: -0.679
- glycan array binding signal (z-score) [41]: -0.464
- glycan array binding signal (z-score) [42]: 4.44
- glycan array binding signal (z-score) [43]: -0.326
